Results as given in PubChem BioAssay AID540276 (National Center for Advancing Translational Sciences (NCATS), 2011).
Hit rate of the full screen: of about 300,000 compounds, about 5,400 (1.8%) were called active. Inconclusive results, whose numbers are uncertain, are shown with a selection of clear calls. Calls follow the shape of the full dose curve; tested in HEK293 cells. Potencies of inconclusive entries are doubtful fits and often do not repeat. A structure can be active in one record and inactive in another.

Assay: qHTS for inhibitors of binding or entry into cells for Marburg Virus
Settings: Marburg virus pseudotyped entry inhibition, cell reporter; series mostly up to 37.8 µM
Potency is read from the fitted curve at half-maximal effect.

SMILES	Potency
CCn1ncc(NC(=O)Nc2cccc(C(F)(F)F)c2)c1C(N)=O	inconclusive: 7.3 µM [activator, partial curve, poor fit]
CC(C)CC(NC(=O)c1ccc(Cl)cc1)C(=O)OCC(=O)c1ccc2c(c1)NC(=O)CO2 (stereo not drawn)	inconclusive: 17.8 µM [inhibitor, single point]
Cc1cc(Cl)ccc1OCC(=O)N(Cc1cccs1)C1CCS(=O)(=O)C1 (stereo not drawn)	inconclusive: 11.2 µM [inhibitor, partial curve, poor fit]
O=C(Nc1ccc(Cl)cc1)c1ccc2c(c1)N(Cc1ccccc1)CCS2	inactive
CC12CCC(O)CC1CCC1C2CCC2(C)C(C3=CC(=O)OC3)CCC12O (stereo not drawn)	active: 0.282 µM
CN(C)CCCN(C(=O)c1ccc2c(c1)CCCC2)c1nc2cc3c(cc2s1)OCO3	active: 11.2 µM
COc1cc(C=NO)nc(-c2ccccn2)c1	inconclusive: 1.41 µM [inhibitor, partial curve, poor fit]
O=C(CSc1n[nH]c(-c2ccncc2)n1)NCCc1ccccc1	inconclusive: 2.24 µM [activator, partial curve, poor fit]
COc1ccc(CC(=O)Oc2cc(C)[nH]c(=O)c2[N+](=O)[O-])cc1	inconclusive: 3.16 µM [inhibitor, partial curve, poor fit]
Cc1oc(-c2cccs2)nc1CN1CCN(CCC(C)C)C(CCO)C1 (stereo not drawn)	inconclusive: 20 µM [inhibitor, single point]
COc1ccc2cc(CN(CCc3ccccc3)Cc3nnnn3CC3CCCO3)c(=O)[nH]c2c1 (stereo not drawn)	inactive
CC1=C(C(=O)Nc2ccccn2)C(c2ccc(Cl)cc2Cl)NC(=S)N1 (stereo not drawn)	inactive
COc1cccc(CNC(=O)CCCNS(=O)(=O)c2cccs2)c1	inconclusive: 8.91 µM [inhibitor, partial curve, poor fit]
COc1ccc(NC(=O)Cn2c(=O)n(Cc3ccco3)c(=O)c3sc4ccccc4c32)cc1Cl	inactive
CC(C)CC(NS(=O)(=O)c1ccc2c(c1)oc(=O)n2C)C(=O)N1CC=C(c2ccccc2)CC1 (stereo not drawn)	inactive
CC1=NS(=O)(=O)c2cc(Cl)ccc2N1	active: 13 µM
Cc1ccc2cc(CN(CCCO)S(=O)(=O)c3ccccc3F)c(=O)[nH]c2c1C	inconclusive: 3.16 µM [inhibitor, single point]
Cc1ccc(-c2csc3nc(C)n(N)c(=O)c23)o1	inactive
CCn1cnc2c1c(=O)n(CC(=O)Nc1ccc3c(c1)OC(F)(F)O3)c(=O)n2Cc1ccccc1	inactive
COC(=O)c1cc(OC)c(OC)cc1NCC(=O)Nc1cccc(C(F)(F)F)c1	active: 10.3 µM
O=c1c2cccc3c2c(nn1CN1CCOCC1)-c1ccccc1-3	inconclusive: 5.17 µM [inhibitor, full curve]
CCc1sc(C(=O)N2CCc3ccccc32)cc1C	inconclusive: 18.3 µM [inhibitor, single point]
O=Cc1cc2ccccc2nc1SCc1ccc(Cl)cc1	inconclusive: 1.12 µM [inhibitor, full curve, poor fit]

Molecules above that have an aryl thioether with sulfur outside any ring:
SMILES	Potency
O=C(CSc1n[nH]c(-c2ccncc2)n1)NCCc1ccccc1	inconclusive: 2.24 µM [activator, partial curve, poor fit]
O=Cc1cc2ccccc2nc1SCc1ccc(Cl)cc1	inconclusive: 1.12 µM [inhibitor, full curve, poor fit]

Next part

SMILES	Potency
COc1ccc(N2CCN(C(=O)CC(C)S(=O)(=O)c3ccc4c(c3)NC(=O)CO4)CC2)cc1 (stereo not drawn)	inconclusive: 11.2 µM [inhibitor, partial curve, poor fit]
Cc1cc(C)c(-c2n[nH]c3c2C(c2ccccc2F)N(CCO)C3=O)c(O)c1 (stereo not drawn)	inconclusive: 3.16 µM [inhibitor, single point]
O=C(CCn1cnc2ccccc2c1=O)Nc1ccc(S(=O)(=O)N2CCCCC2)cc1	inconclusive: 35.5 µM [inhibitor, single point]
Cc1ccc(S(=O)(=O)N2CCCC2C(=O)Nc2nc3c(s2)CCCC3)cc1 (stereo not drawn)	inconclusive: 35.5 µM [inhibitor, single point]
C=CCN(CC=C)S(=O)(=O)c1ccc(NC(=S)NC(=O)C2CC2)cc1	inconclusive: 1.78 µM [activator, partial curve, poor fit]
COc1ccccc1/C=C/C=N/NC(=O)Cc1cccs1	inconclusive: 3.98 µM [activator, single point]
Cc1ccc(C(C)C)c(OCC(=O)Nc2cccc(S(=O)(=O)NC3=NCCCCC3)c2)c1	inconclusive: 35.5 µM [inhibitor, single point]
Cn1cccc1C(=O)NC(=O)CSc1nc2ccccc2s1	inconclusive: 32.6 µM [activator, partial curve, poor fit]
Cc1ccc(-c2nc(-c3ccncc3)no2)cc1	inconclusive: 1.12 µM [activator, single point]
COc1ccc(Nc2nc(N)nc(CSc3nccc(C)n3)n2)cc1	inconclusive: 0.92 µM [inhibitor, full curve, poor fit]
COc1ccc2c(c1OC)C(=O)OC2Nc1nc(-c2ccc([N+](=O)[O-])cc2)cs1 (stereo not drawn)	inactive
COc1ccc(-n2c(C)cc(C(=O)COC(=O)c3cc(NC(=O)c4cccs4)c(OC)c(OC)c3)c2C)cc1	inactive
Cc1cc(C)cc(Nc2ccc(C(=O)O)cc2[N+](=O)[O-])c1	inconclusive: 2.24 µM [inhibitor, partial curve, poor fit]
CC(C)C(OC(=O)CCC(=O)Nc1nccs1)C(=O)NC1CCCCC1 (stereo not drawn)	inactive
O=C(CCSc1nc(-c2ccc3c(c2)OCO3)cc(C(F)(F)F)n1)NCc1ccccc1	inconclusive: 7.08 µM [inhibitor, partial curve]
O=C(C1CCCN(S(=O)(=O)c2cccc3nonc23)C1)N1CCN(c2ccccc2)CC1 (stereo not drawn)	inconclusive: 20.6 µM [inhibitor, single point]
CCOc1ccc(NC(=O)c2nn(C)c3c2COc2ccccc2-3)cc1	inactive
CCOc1ccc(S(=O)(=O)Nc2cc3c(C(=O)OCc4ccccc4)c(C)oc3c3ccccc23)cc1	inconclusive: 11.2 µM [inhibitor, partial curve, poor fit]
O=c1c2ccccc2ncn1CCc1ccncc1	inactive
COc1ccc(NC(=O)C(Sc2ccccc2)c2ccccc2)c(OC)c1 (stereo not drawn)	inactive
O=[N+]([O-])c1cc([N+](=O)[O-])c2cc3ccccc3nc2c1	inconclusive: 6.31 µM [inhibitor, partial curve, poor fit]
Cc1ccc(S(=O)(=O)N2c3ccc(S(N)(=O)=O)cc3CC2C)cc1 (stereo not drawn)	inconclusive: 5.01 µM [inhibitor, single point]
CCCC(=O)Nc1ccc(-c2csc(NNC(C)=O)n2)cc1	inactive

Of the compounds above, 9 contain four or more nitrogen atoms:
SMILES	Potency
CCn1ncc(NC(=O)Nc2cccc(C(F)(F)F)c2)c1C(N)=O	inconclusive: 7.3 µM [activator, partial curve, poor fit]
O=C(CSc1n[nH]c(-c2ccncc2)n1)NCCc1ccccc1	inconclusive: 2.24 µM [activator, partial curve, poor fit]
COc1ccc2cc(CN(CCc3ccccc3)Cc3nnnn3CC3CCCO3)c(=O)[nH]c2c1 (stereo not drawn)	inactive
CC1=C(C(=O)Nc2ccccn2)C(c2ccc(Cl)cc2Cl)NC(=S)N1 (stereo not drawn)	inactive
CCn1cnc2c1c(=O)n(CC(=O)Nc1ccc3c(c1)OC(F)(F)O3)c(=O)n2Cc1ccccc1	inactive
O=C(CCn1cnc2ccccc2c1=O)Nc1ccc(S(=O)(=O)N2CCCCC2)cc1	inconclusive: 35.5 µM [inhibitor, single point]
COc1ccc(Nc2nc(N)nc(CSc3nccc(C)n3)n2)cc1	inconclusive: 0.92 µM [inhibitor, full curve, poor fit]
O=C(C1CCCN(S(=O)(=O)c2cccc3nonc23)C1)N1CCN(c2ccccc2)CC1 (stereo not drawn)	inconclusive: 20.6 µM [inhibitor, single point]
CCCC(=O)Nc1ccc(-c2csc(NNC(C)=O)n2)cc1	inactive

Continuation.

SMILES	Potency
CCN(CC)CCN1C(=O)C(O)=C(C(=O)c2cc3cccc(OC)c3o2)C1c1cccs1 (stereo not drawn)	inactive
O=C(c1ccc(Cl)cc1)n1nc(-c2ccccc2)nc1NCc1ccco1	inconclusive: 3.55 µM [activator, full curve, poor fit]
CC(=O)NC(c1ccco1)c1ccc2cccnc2c1O (stereo not drawn)	inconclusive: 25.1 µM [inhibitor, partial curve, poor fit]
O=C(NC1CCCCC1)c1ccc(S(=O)(=O)c2ccccc2)cc1	inconclusive: 35.5 µM [inhibitor, single point]
CC(C)Oc1ccc(C(=O)NCCNC(=O)c2ccco2)cc1	inconclusive: 12.6 µM [activator, partial curve, poor fit]
CCOC(=O)C1=C(C)NC2=C(C(=O)CCC2)C1c1ccsc1 (stereo not drawn)	inactive
CCOC(=O)N1CCN(C(=O)CSc2ccc3nnc(-c4ccccn4)n3n2)CC1	inconclusive: 3.98 µM [inhibitor, partial curve, poor fit]
Cc1ccc(N(Cc2ccc([N+](=O)[O-])cc2)C(=O)c2ccco2)cc1	inconclusive: 17.8 µM [inhibitor, single point]
Cc1cc(C)cc(NC(=O)c2ccc(S(=O)(=O)C(F)F)cc2)c1	inactive
CC(C)(C)c1ccc(-c2nnc(NC(=O)c3ccccc3)s2)cc1	inactive
CCCSc1oc(-c2ccco2)nc1S(=O)(=O)c1ccc(C)cc1	inconclusive: 14.1 µM [inhibitor, partial curve, poor fit]
O=C(COC(=O)Cn1cnc2ccccc21)Nc1cc(S(=O)(=O)N2CCOCC2)ccc1Cl	inactive
COc1cccc(NC(=O)CN(C)C(=O)C(Sc2ccccc2)c2ccccc2)c1 (stereo not drawn)	inconclusive: 15.8 µM [inhibitor, single point]
O=C(NCCCNCCCNC(=O)c1ccccn1)c1ccccn1	inactive
CCOC(=O)c1cc2c(=O)n3ccccc3nc2n(C(C)C)c1=NC(=O)c1ccco1	inconclusive: 35.5 µM [activator, single point]
O=C(CSc1ccc2ccccc2c1Br)Nc1cccc(S(=O)(=O)NC2=NCCCCC2)c1	inconclusive: 22.4 µM [inhibitor, single point]
Cc1sc(N/N=C/C=C/c2ccccc2)nc1-c1ccccc1	inactive
COc1ccccc1NC(=O)CSc1nnc(C)n1CCc1ccccc1	inactive
COCCNC(=O)C(OC(=O)c1nsc(Cl)c1Cl)C(C)C (stereo not drawn)	inconclusive: 6.31 µM [inhibitor, single point]
CN(C)CCCNC(=O)/C(=C\C=C\c1ccccc1)NC(=O)c1ccc([N+](=O)[O-])cc1	inconclusive: 11.2 µM [inhibitor, partial curve, poor fit]
CCOC(=O)C1CCN(C(=O)C2CCN(S(=O)(=O)c3ccc4ccccc4c3)CC2)CC1	inconclusive: 2.82 µM [activator, partial curve, poor fit]
Cc1nn(C)c(C(=O)N/N=C/c2cc3c(cc2Br)OCO3)c1Br	inconclusive: 35.5 µM [activator, single point]
